These are yes or no findings as the source states them, for the method shown. In cells and extracts the contact can be indirect. Some results given as binding are weak or reduced against the parent protein; the word gives no strength.
What was measured:
β1 integrin subunit [1] = target: β1 integrin subunit (UniProt P05556); assay: in situ proximity ligation assay in PANC-1 cells; promoted by CAF-CM, required Sig-1R
β1 integrin subunit [2] = target: β1 integrin subunit (UniProt P05556); assay: in situ proximity ligation assay in PANC-1 cells (restated in the discussion)

Amino acid sequences for entries named in this document (tags omitted).
UniProt P05556: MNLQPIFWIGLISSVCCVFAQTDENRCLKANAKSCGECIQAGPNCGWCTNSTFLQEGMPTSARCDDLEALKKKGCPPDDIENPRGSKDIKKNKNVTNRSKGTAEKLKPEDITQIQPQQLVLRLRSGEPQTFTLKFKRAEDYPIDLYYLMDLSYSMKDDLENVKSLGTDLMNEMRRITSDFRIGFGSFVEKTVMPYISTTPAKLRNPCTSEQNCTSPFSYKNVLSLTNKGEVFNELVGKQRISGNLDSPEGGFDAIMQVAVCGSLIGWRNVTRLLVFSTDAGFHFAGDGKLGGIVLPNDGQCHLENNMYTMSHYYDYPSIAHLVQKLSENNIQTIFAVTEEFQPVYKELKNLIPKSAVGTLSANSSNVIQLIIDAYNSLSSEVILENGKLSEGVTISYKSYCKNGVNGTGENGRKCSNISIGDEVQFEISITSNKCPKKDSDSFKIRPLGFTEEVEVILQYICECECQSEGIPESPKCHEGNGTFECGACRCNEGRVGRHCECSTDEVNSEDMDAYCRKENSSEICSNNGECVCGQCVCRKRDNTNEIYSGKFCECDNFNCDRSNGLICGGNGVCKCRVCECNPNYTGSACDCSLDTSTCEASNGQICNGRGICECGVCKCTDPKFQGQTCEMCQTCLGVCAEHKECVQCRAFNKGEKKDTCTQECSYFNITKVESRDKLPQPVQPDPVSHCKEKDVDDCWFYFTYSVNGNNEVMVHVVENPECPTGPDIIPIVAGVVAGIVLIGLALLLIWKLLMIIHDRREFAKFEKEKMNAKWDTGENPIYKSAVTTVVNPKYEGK

binding (β1 integrin subunit [1]): binds
binding (β1 integrin subunit [2]): binds
Substance: SK2 K+ channel (from UniProt Q9H2S1 1-579)

Reference: patent US20260083725A1, “SIGMARI LIGAND FOR THE TREATMENT OF PANCREATIC CANCER” (INSTITUT NATIONAL DE LA SANTÉ ET DE LA RECHERCHE MÉDICALE, priority 2022, published 2026)
